Test system: carcinoembryonic antigen (CEA)
Experiment: One-step immunoassay of carcinoembryonic antigen using L1 peptide (FIGS. 9A-9B)

TYLEWYPQKPGQSPKLLIYK [L1, TYLEW YPQKP GQSPK LLIYK]
limit of detection (LOD) (fluorescence measured from transferred solution): 34.7 ng/mL | limit of detection (LOD) (fluorescence measured in microplate well state): about 33.6 ng/ml
